Measurements taken from article PMC3330820.
These are yes or no findings as the source states them, for the method shown. In cells and extracts the contact can be indirect. A result given as binding can be weak or reduced; the word gives no strength. Tags and fused reporters may be left off the sequences shown.

Target: T1, GFP-RhoGDI (green fluorescent protein-tagged RhoGDI) (UniProt P52565)
T1 sequence: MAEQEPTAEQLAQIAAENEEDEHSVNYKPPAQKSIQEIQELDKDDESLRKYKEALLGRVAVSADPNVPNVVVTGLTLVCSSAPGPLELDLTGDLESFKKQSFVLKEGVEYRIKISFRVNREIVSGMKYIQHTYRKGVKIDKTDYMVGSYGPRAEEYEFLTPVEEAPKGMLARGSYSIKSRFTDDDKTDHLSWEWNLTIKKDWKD
Assay: co-IP; XIAP-/- HCT116 cells expressing GFP-RhoGDI with HA-XIAP constructs; immunoprecipitated with anti-GFP antibody-conjugated agarose beads, blotted for XIAP / HA

binding | Substance
binds weakly | HA-XIAP ΔRING (RING domain-deletion) (human) (domain or fragment)
binds | HA-XIAP ΔBIR (total BIR deletion) (human) (domain or fragment)
